Measurements: publication PMC12064944
No constants are given. Whether binding was seen depends on the method and setting. In cells and extracts the contact can be indirect. Some binding calls cover weakened binding; strength is not graded here. Where a sequence is shown, tags or fusion partners need not be part of it.

Biological target: T1, Mfn1-flag, Q8IWA4
T1 chain: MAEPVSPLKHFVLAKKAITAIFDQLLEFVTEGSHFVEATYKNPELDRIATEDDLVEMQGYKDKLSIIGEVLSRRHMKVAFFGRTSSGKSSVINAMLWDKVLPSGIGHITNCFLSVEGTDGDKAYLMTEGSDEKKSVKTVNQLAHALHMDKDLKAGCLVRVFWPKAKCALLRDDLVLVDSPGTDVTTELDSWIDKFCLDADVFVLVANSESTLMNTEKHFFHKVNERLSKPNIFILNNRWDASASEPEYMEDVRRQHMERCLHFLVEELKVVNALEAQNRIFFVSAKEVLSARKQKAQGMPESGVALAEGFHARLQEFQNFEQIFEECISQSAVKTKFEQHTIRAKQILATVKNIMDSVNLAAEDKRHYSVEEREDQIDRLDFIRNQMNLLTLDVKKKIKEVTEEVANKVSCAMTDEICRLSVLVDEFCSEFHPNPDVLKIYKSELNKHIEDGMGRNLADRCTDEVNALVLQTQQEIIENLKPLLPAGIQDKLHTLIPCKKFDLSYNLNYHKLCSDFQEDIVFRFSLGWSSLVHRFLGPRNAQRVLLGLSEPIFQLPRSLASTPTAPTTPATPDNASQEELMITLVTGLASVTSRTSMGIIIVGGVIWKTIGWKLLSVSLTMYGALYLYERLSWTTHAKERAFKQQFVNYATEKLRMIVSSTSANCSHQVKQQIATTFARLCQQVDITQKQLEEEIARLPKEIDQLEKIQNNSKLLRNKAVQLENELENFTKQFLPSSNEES
Test: co-IP; HEK293 cells cotransfected with Mfn1-flag and Mfn2-myc with or without DAP3-flag for 24 h; lysates precipitated with anti-flag beads; western blot; also repeated with 200 µg purified recombinant DAP3 added to lysate containing 400 µg total protein
Details: remark: other sources report otherwise

binding: binds
B1: Mfn2-myc, O95140 1-757 (protein)
chain: MSLLFSRCNSIVTVKKNKRHMAEVNASPLKHFVTAKKKINGIFEQLGAYIQESATFLEDTYRNAELDPVTTEEQVLDVKGYLSKVRGISEVLARRHMKVAFFGRTSNGKSTVINAMLWDKVLPSGIGHTTNCFLRVEGTDGHEAFLLTEGSEEKRSAKTVNQLAHALHQDKQLHAGSLVSVMWPNSKCPLLKDDLVLMDSPGIDVTTELDSWIDKFCLDADVFVLVANSESTLMQTEKHFFHKVSERLSRPNIFILNNRWDASASEPEYMEEVRRQHMERCTSFLVDELGVVDRSQAGDRIFFVSAKEVLNARIQKAQGMPEGGGALAEGFQVRMFEFQNFERRFEECISQSAVKTKFEQHTVRAKQIAEAVRLIMDSLHMAAREQQVYCEEMREERQDRLKFIDKQLELLAQDYKLRIKQITEEVERQVSTAMAEEIRRLSVLVDDYQMDFHPSPVVLKVYKNELHRHIEEGLGRNMSDRCSTAITNSLQTMQQDMIDGLKPLLPVSVRSQIDMLVPRQCFSLNYDLNCDKLCADFQEDIEFHFSLGWTMLVNRFLGPKNSRRALMGYNDQVQRPIPLTPANPSMPPLPQGSLTQEEFMVSMVTGLASLTSRTSMGILVVGGVVWKAVGWRLIALSFGLYGLLYVYERLTWTTKAKERAFKRQFVEHASEKLQLVISYTGSNCSHQVQQELSGTFAHLCQQVDVTRENLEQEIAAMNKKIEVLDSLQSKAKLLRNKAGWLDSELNMFTHQYLQPSR
